Measurements reported in PubChem BioAssay AID504784 (Drosophila RNAi Screening Center, 2011)

Assay: 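Fly genes whose silencing alters how much lipid cells keep in droplets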 (primary screen)
Cell system: Drosophila Kc167 embryonic cells
Reagents: long dsRNA against Drosophila genes, about 250 ng dsRNA per well
Timing: 4 days
Conditions: cells fed 400 µM oleic acid bound to BSA
Read-out: 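Cells imaged and segmented; ratio of lipid droplet area to nuclear area, log-transformed, then normalised as a B-score over the screen; higher means more stored lipid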
Reading the numbers: droplet/nuclear area B-score: higher = more stored lipid (overstorage)
The screen tested about 17,000 reagents; below is an unselected part of those that have a named target and a result. 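Each column is one replicate's B-score; the combined score over replicates was not deposited, so single values may mislead.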 The numbers tell different reagents against one gene apart. A plus sign joins genes that one reagent is predicted to hit. Further read-outs or replicates are left out here. Reagent sequences are not shown.

{"target": "shtd (shattered)", "reagent no.": 1, "droplet/nuclear area B-score, replicate 1": 1.27}
{"target": "lbk (lambik)", "reagent no.": 1, "droplet/nuclear area B-score, replicate 1": -0.00505}
{"target": "mav (maverick)", "reagent no.": 1, "droplet/nuclear area B-score, replicate 1": 1.18}
{"target": "CG34458", "reagent no.": 1, "droplet/nuclear area B-score, replicate 1": 0.0197}
{"target": "betaNACtes6 (Nascent-associated complex beta-subunit-like, testis 6)", "reagent no.": 1, "droplet/nuclear area B-score, replicate 1": -1.96}
{"target": "CG11892", "reagent no.": 1, "droplet/nuclear area B-score, replicate 1": -3.35}
{"target": "Cnx14D (Calnexin 14D)", "reagent no.": 1, "droplet/nuclear area B-score, replicate 1": 0.019}
{"target": "Indy (I'm not dead yet)", "reagent no.": 1, "droplet/nuclear area B-score, replicate 1": -1.42}
{"target": "CG33125", "reagent no.": 1, "droplet/nuclear area B-score, replicate 1": -0.174}
{"target": "Gdh (Glutamate dehydrogenase)", "reagent no.": 1, "droplet/nuclear area B-score, replicate 1": -0.155}
{"target": "CG33120", "reagent no.": 1, "droplet/nuclear area B-score, replicate 1": 0.295}
{"target": "deltaCOP (Coat Protein (coatomer) delta)", "reagent no.": 1, "droplet/nuclear area B-score, replicate 1": 2.49}
{"target": "alpha-Cat (alpha Catenin)", "reagent no.": 1, "droplet/nuclear area B-score, replicate 1": -2.27}
{"target": "Syx8 (Syntaxin 8)", "reagent no.": 1, "droplet/nuclear area B-score, replicate 1": -0.292}
{"target": "Syx8 (Syntaxin 8)", "reagent no.": 2, "droplet/nuclear area B-score, replicate 1": -0.981}
{"target": "Cln3", "reagent no.": 1, "droplet/nuclear area B-score, replicate 1": -0.00504}

Continued; the last 5 above are carried over.
{"target": "deltaCOP (Coat Protein (coatomer) delta)", "reagent no.": 1, "droplet/nuclear area B-score, replicate 1": 2.49}
{"target": "alpha-Cat (alpha Catenin)", "reagent no.": 1, "droplet/nuclear area B-score, replicate 1": -2.27}
{"target": "Syx8 (Syntaxin 8)", "reagent no.": 1, "droplet/nuclear area B-score, replicate 1": -0.292}
{"target": "Syx8 (Syntaxin 8)", "reagent no.": 2, "droplet/nuclear area B-score, replicate 1": -0.981}
{"target": "Cln3", "reagent no.": 1, "droplet/nuclear area B-score, replicate 1": -0.00504}
{"target": "Gnf1 (Germ line transcription factor 1)", "reagent no.": 1, "droplet/nuclear area B-score, replicate 1": -1.9}
{"target": "beta-Spec (beta Spectrin)", "reagent no.": 1, "droplet/nuclear area B-score, replicate 1": -1.16}
{"target": "CG18449", "reagent no.": 1, "droplet/nuclear area B-score, replicate 1": -0.487}
{"target": "E(spl)m4-BFM (Enhancer of split m4, Bearded family member)", "reagent no.": 1, "droplet/nuclear area B-score, replicate 1": -0.639}
{"target": "CG8565", "reagent no.": 1, "droplet/nuclear area B-score, replicate 1": -0.34}
{"target": "CG12620", "reagent no.": 1, "droplet/nuclear area B-score, replicate 1": -1.35}
{"target": "CG8858", "reagent no.": 1, "droplet/nuclear area B-score, replicate 1": 0.878}
{"target": "IntS14 (Integrator 14)", "reagent no.": 1, "droplet/nuclear area B-score, replicate 1": 0.703}
{"target": "CG8323", "reagent no.": 1, "droplet/nuclear area B-score, replicate 1": 0.0841}
{"target": "CG11379", "reagent no.": 1, "droplet/nuclear area B-score, replicate 1": 2.39}
{"target": "Caf1-180 (Chromatin assembly factor 1, p180 subunit)", "reagent no.": 1, "droplet/nuclear area B-score, replicate 1": -0.346}
{"target": "CG6431", "reagent no.": 1, "droplet/nuclear area B-score, replicate 1": -0.935}
{"target": "CG2493", "reagent no.": 1, "droplet/nuclear area B-score, replicate 1": 0.884}
{"target": "CG17746", "reagent no.": 1, "droplet/nuclear area B-score, replicate 1": 2.59}
{"target": "CG17746", "reagent no.": 2, "droplet/nuclear area B-score, replicate 1": -0.0229}
{"target": "Sox21a", "reagent no.": 1, "droplet/nuclear area B-score, replicate 1": 0.0509}
{"target": "Ing3 (Inhibitor of growth family, member 3)", "reagent no.": 1, "droplet/nuclear area B-score, replicate 1": 0.035}
{"target": "mgr (merry-go-round)", "reagent no.": 1, "droplet/nuclear area B-score, replicate 1": 0.0703}
{"target": "sun (stunted)", "reagent no.": 1, "droplet/nuclear area B-score, replicate 1": 0.0856}
{"target": "CG4953", "reagent no.": 1, "droplet/nuclear area B-score, replicate 1": 0.405}
{"target": "Cpr57A + Obp57d", "reagent no.": 1, "droplet/nuclear area B-score, replicate 1": -1.35}
{"target": "Cpr57A + Obp57d", "reagent no.": 2, "droplet/nuclear area B-score, replicate 1": -0.628}
{"target": "mRNA-cap (mRNA-capping-enzyme)", "reagent no.": 1, "droplet/nuclear area B-score, replicate 1": 0.928}
{"target": "CG9776", "reagent no.": 1, "droplet/nuclear area B-score, replicate 1": 0.00265}
